Test results reported in the supplement of paper PMC4604168 (melanoma cell lines).
This is one part of the list. Repeats are few or missing, and single values can be far off.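 Imaging used 1,536-well plates; nuclei positive for cleaved PARP by antibody were divided by total DNA-stained nuclei to yield the apoptosis fraction. Doses for screening kept most cells viable, and cell lines differ markedly in resting and induced cleaved-PARP levels.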

Assays:
Assay in all cases: cleaved PARP positive nuclei fraction relative to DMSO control; melanoma cells; higher = more apoptosis
Details in all cases: library dose: low library concentration; 72 h
501Mel = test system: 501Mel
A101D = test system: A101D
A2058 = test system: A2058
C32 = test system: C32
CBRC008 = test system: CBRC008 (line from a melanoma biopsy)
CBRC014 = test system: CBRC014 (line from a melanoma biopsy)
CBRC016 = test system: CBRC016 (line from a melanoma biopsy)
CBRC017 = test system: CBRC017 (line from a melanoma biopsy)

Compound	cleaved PARP positive nuclei fraction (501Mel) [%]	cleaved PARP positive nuclei fraction (A101D) [%]	cleaved PARP positive nuclei fraction (A2058) [%]	cleaved PARP positive nuclei fraction (C32) [%]	cleaved PARP positive nuclei fraction (CBRC008) [%]	cleaved PARP positive nuclei fraction (CBRC014) [%]	cleaved PARP positive nuclei fraction (CBRC016) [%]	cleaved PARP positive nuclei fraction (CBRC017) [%]
Nc1ccn([C@@H]2O[C@H](CO)[C@@H](O)C2(F)F)c(=O)n1 [gemcitabine] + C/C(O)=C(\C#N)C(=O)Nc1cc(Br)ccc1Br [LFM-A13] (first compound 0.0004 µM, partner dose 2 µM)	161	52	98.8	69.7	250	183	189	97.9
CC(=O)O[C@@]12CO[C@@H]1C[C@H](O)[C@@]1(C)C(=O)[C@H](O)C3=C(C)[C@@H](OC(=O)[C@H](O)[C@@H](NC(=O)OC(C)(C)C)c4ccccc4)C[C@@](O)([C@@H](OC(=O)c4ccccc4)[C@H]21)C3(C)C [Docetaxel] + Cc1cc(SCc2sc(-c3ccc(C(F)(F)F)c(F)c3)nc2C)ccc1OCC(=O)O [GW0742] (first compound 0.0001 µM, partner dose 2 µM)	62.8	67.8	4310	89.6	854	163	128	82.1
COc1ccc(C2=N[C@@H](c3ccc(Cl)cc3)[C@@H](c3ccc(Cl)cc3)N2C(=O)N2CCNC(=O)C2)c(OC(C)C)c1 [Nutlin-3] + Cc1cc(SCc2sc(-c3ccc(C(F)(F)F)c(F)c3)nc2C)ccc1OCC(=O)O [GW0742] (first compound 0.1 µM, partner dose 2 µM)	66.8	33.7	32.7	41.2	324	94	124	114
CO[C@H]1C[C@@H]2CC[C@@H](C)[C@@](O)(O2)C(=O)C(=O)N2CCCC[C@H]2C(=O)O[C@H]([C@H](C)C[C@@H]2CC[C@@H](OCCO)[C@H](OC)C2)CC(=O)[C@H](C)/C=C(\C)[C@@H](O)[C@@H](OC)C(=O)[C@H](C)C[C@H](C)/C=C/C=C/C=C/1C [everolimus] + C/C(O)=C(\C#N)C(=O)Nc1cc(Br)ccc1Br [LFM-A13] (first compound 0.02 µM, partner dose 2 µM)	102	12.9	115	51.1	79.3	118	55.6	286
Cn1c(=O)n(-c2ccc(C(C)(C)C#N)cc2)c2c3cc(-c4cnc5ccccc5c4)ccc3ncc21 + Cc1cc(SCc2sc(-c3ccc(C(F)(F)F)c(F)c3)nc2C)ccc1OCC(=O)O [GW0742] (first compound 0.004 µM, partner dose 2 µM)	64.2	14.2	120	160	133	178	38.7	70.5
CC1(C)CCC(c2ccc(Cl)cc2)=C(CN2CCN(c3ccc(C(=O)NS(=O)(=O)c4ccc(N[C@H](CCN5CCOCC5)CSc5ccccc5)c(S(=O)(=O)C(F)(F)F)c4)cc3)CC2)C1 + O=C(Oc1ccc([N+](=O)[O-])cc1)N1CCC(C(O)(c2ccc3c(c2)OCO3)c2ccc3c(c2)OCO3)CC1 [JZL184] (first compound 0.4 µM, partner dose 1 µM)	67	79.9	73.6	409	337	375	1420	462
CCCCCCCCCCCCCCCCCCOP(=O)([O-])OC1CC[N+](C)(C)CC1 [Perifosine] + O=C(Oc1ccc([N+](=O)[O-])cc1)N1CCC(C(O)(c2ccc3c(c2)OCO3)c2ccc3c(c2)OCO3)CC1 [JZL184] (first compound 0.4 µM, partner dose 1 µM)	51.3	15.5	99.7	48.8	52	110	29.9	73.9
C[C@]12O[C@H](C[C@]1(O)CO)n1c3ccccc3c3c4c(c5c6ccccc6n2c5c31)CNC4=O [Lestaurtinib] + N#Cc1c(O)c2c(-c3ccc(-c4ccccc4O)cc3)csc2[nH]c1=O [A769662] (first compound 0.004 µM, partner dose 2 µM)	88.2	45.6	31.2	144	123	64.7	58.6	68.3
CNC(=O)c1cc(Oc2ccc(NC(=O)Nc3ccc(Cl)c(C(F)(F)F)c3)cc2)ccn1 [sorafenib] + Cc1cc(SCc2sc(-c3ccc(C(F)(F)F)c(F)c3)nc2C)ccc1OCC(=O)O [GW0742] (first compound 0.4 µM, partner dose 2 µM)	64.6	29.6	49.9	150	55.1	181	71.6	98.1
Clc1ccc(Nc2nnc(Cc3ccncc3)c3ccccc23)cc1 [vatalanib] + C/C(O)=C(\C#N)C(=O)Nc1cc(Br)ccc1Br [LFM-A13] (first compound 2 µM, partner dose 2 µM)	53.1	67.1	95.7	95.2	48.3	231	98.2	102
O=C(/C=C/c1cccnc1)NCCCCC1CCN(C(=O)c2ccccc2)CC1 + O=C(Oc1ccc([N+](=O)[O-])cc1)N1CCC(C(O)(c2ccc3c(c2)OCO3)c2ccc3c(c2)OCO3)CC1 [JZL184] (first compound 0.01 µM, partner dose 1 µM)	101	31.7	119	66.4	3420	94.1	735	357
COc1ccc(C2=N[C@@H](c3ccc(Cl)cc3)[C@@H](c3ccc(Cl)cc3)N2C(=O)N2CCNC(=O)C2)c(OC(C)C)c1 [Nutlin-3] + O=C(Oc1ccc([N+](=O)[O-])cc1)N1CCC(C(O)(c2ccc3c(c2)OCO3)c2ccc3c(c2)OCO3)CC1 [JZL184] (first compound 0.1 µM, partner dose 1 µM)	150	47.3	106	47.6	91.5	99.3	29.4	111
C[C@]12O[C@H](C[C@]1(O)CO)n1c3ccccc3c3c4c(c5c6ccccc6n2c5c31)CNC4=O [Lestaurtinib] + O=C(Nc1ccccc1)c1cc([N+](=O)[O-])ccc1Cl [GW9662] (first compound 0.004 µM, partner dose 2 µM)	144	13.8	66.3	116	63.1	99.1	59.1	122
N.N.[Cl][Pt][Cl] [cisplatin] + COc1cc2ncnc(Nc3ccc(Oc4ccccc4)cc3)c2cc1OC [SrcI1] (first compound 1.6 µM, partner dose 2 µM)	62.4	24	95.6	76.8	265	111	21.2	116
Nc1nc(F)nc2c1ncn2[C@@H]1O[C@H](CO)[C@@H](O)[C@@H]1O [fludarabine] + O=C(Oc1ccc([N+](=O)[O-])cc1)N1CCC(C(O)(c2ccc3c(c2)OCO3)c2ccc3c(c2)OCO3)CC1 [JZL184] (first compound 0.2 µM, partner dose 1 µM)	2250	9.97	181	32.8	315	93.2	122	90.4
N.N.[Cl][Pt][Cl] [cisplatin] + COc1cc(N2CCC(N3CCN(C)CC3)CC2)ccc1Nc1ncc(Cl)c(Nc2ccccc2S(=O)(=O)C(C)C)n1 [NVP-TAE684] (first compound 1.6 µM, partner dose 0.08 µM)	76	53.5	158	41.3	152	112	39.8	78.1
N.N.[Cl][Pt][Cl] [cisplatin] + O=S(=O)(c1ccccc1)N(CC(F)(F)F)c1ccc(C(O)(C(F)(F)F)C(F)(F)F)cc1 [T0901317] (first compound 1.6 µM, partner dose 1.4 µM)	64.9	19.8	21.6	50.6	57.8	122	52.4	154
Cn1cc(C2=C(c3cn(C4CCN(Cc5ccccn5)CC4)c4ccccc34)C(=O)NC2=O)c2ccccc21 [Enzastaurin] + CCc1ccc(CCOc2ccc(CC3SC(=O)NC3=O)cc2)nc1 [pioglitazone] (first compound 0.8 µM, partner dose 2 µM)	54.9	19.1	67.5	24.5	213	93.3	113	256
C[C@]12O[C@H](C[C@]1(O)CO)n1c3ccccc3c3c4c(c5c6ccccc6n2c5c31)CNC4=O [Lestaurtinib] + CCc1ccc(CCOc2ccc(CC3SC(=O)NC3=O)cc2)nc1 [pioglitazone] (first compound 0.004 µM, partner dose 2 µM)	95.2	10.4	97	186	48.1	82.6	77.6	97.7
C[C@]12O[C@H](C[C@]1(O)CO)n1c3ccccc3c3c4c(c5c6ccccc6n2c5c31)CNC4=O [Lestaurtinib] + Cn1cc(/C=C2\C(=O)Nc3cccnc32)c2ccccc21 [GW441756] (first compound 0.004 µM, partner dose 0.4 µM)	77.7	37.7	108	190	147	92.9	41.3	79.2
C[C@@H](N)c1ccc(C(=O)Nc2ccnc3[nH]ccc23)cc1 + O=C(Oc1ccc([N+](=O)[O-])cc1)N1CCC(C(O)(c2ccc3c(c2)OCO3)c2ccc3c(c2)OCO3)CC1 [JZL184] (first compound 0.4 µM, partner dose 1 µM)	85.9	45.4	103	82.3	55.9	157	71.7	174
CC(=O)O[C@@]12CO[C@@H]1C[C@H](O)[C@@]1(C)C(=O)[C@H](O)C3=C(C)[C@@H](OC(=O)[C@H](O)[C@@H](NC(=O)OC(C)(C)C)c4ccccc4)C[C@@](O)([C@@H](OC(=O)c4ccccc4)[C@H]21)C3(C)C [Docetaxel] + O=C(Oc1ccc([N+](=O)[O-])cc1)N1CCC(C(O)(c2ccc3c(c2)OCO3)c2ccc3c(c2)OCO3)CC1 [JZL184] (first compound 0.0001 µM, partner dose 1 µM)	184	54.7	5940	418	349	221	214	132
Nc1nc(F)nc2c1ncn2[C@@H]1O[C@H](CO)[C@@H](O)[C@@H]1O [fludarabine] + Cc1cc(SCc2sc(-c3ccc(C(F)(F)F)c(F)c3)nc2C)ccc1OCC(=O)O [GW0742] (first compound 0.2 µM, partner dose 2 µM)	1150	29.7	16.9	50.9	57.9	96	107	143

Complete entries, quoted from the list.
Clc1ccc(Nc2nnc(Cc3ccncc3)c3ccccc23)cc1 [vatalanib] + C/C(O)=C(\C#N)C(=O)Nc1cc(Br)ccc1Br [LFM-A13] (first compound 2 µM, partner dose 2 µM) in the list: cleaved PARP positive nuclei fraction (501Mel) [%]: 53.1; cleaved PARP positive nuclei fraction (A101D) [%]: 67.1; cleaved PARP positive nuclei fraction (A2058) [%]: 95.7; cleaved PARP positive nuclei fraction (C32) [%]: 95.2; cleaved PARP positive nuclei fraction (CBRC008) [%]: 48.3; cleaved PARP positive nuclei fraction (CBRC014) [%]: 231; cleaved PARP positive nuclei fraction (CBRC016) [%]: 98.2; cleaved PARP positive nuclei fraction (CBRC017) [%]: 102
COc1ccc(C2=N[C@@H](c3ccc(Cl)cc3)[C@@H](c3ccc(Cl)cc3)N2C(=O)N2CCNC(=O)C2)c(OC(C)C)c1 [Nutlin-3] + O=C(Oc1ccc([N+](=O)[O-])cc1)N1CCC(C(O)(c2ccc3c(c2)OCO3)c2ccc3c(c2)OCO3)CC1 [JZL184] (first compound 0.1 µM, partner dose 1 µM) in the list: cleaved PARP positive nuclei fraction (501Mel) [%]: 150; cleaved PARP positive nuclei fraction (A101D) [%]: 47.3; cleaved PARP positive nuclei fraction (A2058) [%]: 106; cleaved PARP positive nuclei fraction (C32) [%]: 47.6; cleaved PARP positive nuclei fraction (CBRC008) [%]: 91.5; cleaved PARP positive nuclei fraction (CBRC014) [%]: 99.3; cleaved PARP positive nuclei fraction (CBRC016) [%]: 29.4; cleaved PARP positive nuclei fraction (CBRC017) [%]: 111
